Earlier results in patent publication US8048875B1, “Topical pharmaceutical composition comprising a cholinergic agent or a calcium channel blocker” (S.L.A. Pharma AG, priority 1997, dated 2011).
For at least one compound, name, drawing or mass did not settle the structure.

Conditions: patients with high anal resting pressure; cited from earlier work

Q: For `COC(=O)C1=C(C)NC(C)=C(C(=O)OC)C1c1ccccc1[N+](=O)[O-]` [nifedipine], which “effect on the internal anal sphincter” value is on record?
A: reducing the activity of the internal anal sphincter
